# Assay results taken from the supplement of paper PMC8728848.
# The other results are listed elsewhere or left out.
# B1: MUB70 (Lactobacillus reuteri) (protein)
# chain: CVHVQYIDGETDQMLRQDDLDGYTDETIPYSTAEGIKKFEGDGYELFKDNFPAGEKFDNDDTNDQFYTVIF
# How the values were obtained:
# Test in all cases: glycan array binding signal (z-score within array); higher = stronger binding
# Settings in all cases: glycan notation: IUPAC condensed, linker removed
# Gal(a1-3)Gal = biological target: Gal(a1-3)Gal
# Method in brief: (§1)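 The binding signal is a Z-score computed within each array and averaged over linkers. Arrays of the same protein sequence at different concentrations or buffers were also averaged together. Data originate from 3228 arrays in the Consortium for Functional Glycomics database, kept only where the protein sequence was available.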
# Gal(a1-3)Gal(b1-3)GlcNAc = biological target: Gal(a1-3)Gal(b1-3)GlcNAc
# Method in brief: as §1
# [1] = biological target: Gal(a1-3)Gal(b1-3)GlcNAc(b1-2)Man
# Method in brief: as §1
# [2] = biological target: Gal(a1-3)Gal(b1-3)GlcNAc(b1-2)Man(a1-3)[Gal(a1-3)Gal(b1-3)GlcNAc(b1-2)Man(a1-6)]Man(b1-4)GlcNAc(b1-4)GlcNAc
# Method in brief: as §1
# [3] = biological target: Gal(a1-3)Gal(b1-3)GlcNAc(b1-3)GalNAc
# Method in brief: as §1
# [4] = biological target: Gal(a1-3)Gal(b1-3)GlcNAc(b1-6)GalNAc
# Method in brief: as §1
# [5] = biological target: Gal(a1-3)Gal(b1-3)[Fuc(a1-4)]GlcNAc(b1-2)Man(a1-3)[Gal(a1-3)Gal(b1-3)[Fuc(a1-4)]GlcNAc(b1-2)Man(a1-6)]Man(b1-4)GlcNAc(b1-4)GlcNAc
# Method in brief: as §1
# Gal(a1-3)Gal(b1-4)Glc = biological target: Gal(a1-3)Gal(b1-4)Glc
# Method in brief: as §1
# Gal(a1-3)Gal(b1-4)GlcNAc = biological target: Gal(a1-3)Gal(b1-4)GlcNAc
# Method in brief: as §1
# [6] = biological target: Gal(a1-3)Gal(b1-4)GlcNAc(b1-2)Man
# Method in brief: as §1
# [7] = biological target: Gal(a1-3)Gal(b1-4)GlcNAc(b1-2)Man(a1-3)[Gal(a1-3)Gal(b1-4)GlcNAc(b1-2)Man(a1-6)]Man(b1-4)GlcNAc(b1-4)GlcNAc
# Method in brief: as §1
# [8] = biological target: Gal(a1-3)Gal(b1-4)GlcNAc(b1-3)GalNAc
# Method in brief: as §1
# [9] = biological target: Gal(a1-3)Gal(b1-4)GlcNAc(b1-6)GalNAc
# Method in brief: as §1
# [10] = biological target: Gal(a1-3)Gal(b1-4)[Fuc(a1-3)]GlcNAc
# Method in brief: as §1
# [11] = biological target: Gal(a1-3)Gal(b1-4)[Fuc(a1-3)]GlcNAc(b1-2)Man(a1-3)[Gal(a1-3)Gal(b1-4)[Fuc(a1-3)]GlcNAc(b1-2)Man(a1-6)]Man(b1-4)GlcNAc(b1-4)GlcNAc
# Method in brief: as §1
# Gal(a1-3)GalNAc = biological target: Gal(a1-3)GalNAc
# Method in brief: as §1
# [12] = biological target: Gal(a1-3)[Gal(a1-4)]Gal(b1-4)GlcNAc
# Method in brief: as §1
# [13] = biological target: Gal(a1-4)Gal(b1-3)GlcNAc(b1-2)Man(a1-3)[Gal(a1-4)Gal(b1-3)GlcNAc(b1-2)Man(a1-6)]Man(b1-4)GlcNAc(b1-4)GlcNAc
# Method in brief: as §1
# Gal(a1-4)Gal(b1-4)Glc = biological target: Gal(a1-4)Gal(b1-4)Glc
# Method in brief: as §1
# Gal(a1-4)Gal(b1-4)GlcNAc = biological target: Gal(a1-4)Gal(b1-4)GlcNAc
# Method in brief: as §1
# [14] = biological target: Gal(a1-4)Gal(b1-4)GlcNAc(b1-2)Man(a1-3)[Gal(a1-4)Gal(b1-4)GlcNAc(b1-2)Man(a1-6)]Man(b1-4)GlcNAc(b1-4)GlcNAc
# Method in brief: as §1
# [15] = biological target: Gal(a1-4)Gal(b1-4)GlcNAc(b1-3)Gal(b1-4)Glc
# Method in brief: as §1
# Gal(a1-4)GlcNAc = biological target: Gal(a1-4)GlcNAc
# Method in brief: as §1
# Gal(a1-6)Glc = biological target: Gal(a1-6)Glc
# Method in brief: as §1
# Gal(b1-2)Gal = biological target: Gal(b1-2)Gal
# Method in brief: as §1
# Gal(b1-3)Gal = biological target: Gal(b1-3)Gal
# Method in brief: as §1
# Gal(b1-3)Gal(b1-4)GlcNAc = biological target: Gal(b1-3)Gal(b1-4)GlcNAc
# Method in brief: as §1
# Gal(b1-3)GalNAc = biological target: Gal(b1-3)GalNAc
# Method in brief: as §1
# [16] = biological target: Gal(b1-3)GalNAc(a1-3)[Fuc(a1-2)]Gal(b1-4)Glc
# Method in brief: as §1
# [17] = biological target: Gal(b1-3)GalNAc(a1-3)[Fuc(a1-2)]Gal(b1-4)GlcNAc
# Method in brief: as §1
# Gal(b1-3)GalNAc(b1-3)Gal = biological target: Gal(b1-3)GalNAc(b1-3)Gal
# Method in brief: as §1
# [18] = biological target: Gal(b1-3)GalNAc(b1-3)Gal(a1-4)Gal(b1-4)Glc
# Method in brief: as §1
# [19] = biological target: Gal(b1-3)GalNAc(b1-4)Gal(b1-4)Glc
# Method in brief: as §1
# [20] = biological target: Gal(b1-3)GalNAc(b1-4)[Neu5Ac(a2-3)]Gal(b1-4)Glc
# Method in brief: as §1
# Gal(b1-3)GlcNAc = biological target: Gal(b1-3)GlcNAc
# Method in brief: as §1
# [21] = biological target: Gal(b1-3)GlcNAc(a1-3)Gal(b1-4)GlcNAc
# Method in brief: as §1
# [22] = biological target: Gal(b1-3)GlcNAc(a1-6)Gal(b1-4)GlcNAc
# Method in brief: as §1
# Gal(b1-3)GlcNAc(b1-2)Man = biological target: Gal(b1-3)GlcNAc(b1-2)Man
# Method in brief: as §1
binder,measurement,setting,value
B1,glycan array binding signal (z-score),Gal(a1-3)Gal,0.113
same,glycan array binding signal (z-score),Gal(a1-3)Gal(b1-3)GlcNAc,-0.284
same,glycan array binding signal (z-score),[1],0.16
same,glycan array binding signal (z-score),[2],0.108
same,glycan array binding signal (z-score),[3],-0.062
same,glycan array binding signal (z-score),[4],-0.138
same,glycan array binding signal (z-score),[5],0.401
same,glycan array binding signal (z-score),Gal(a1-3)Gal(b1-4)Glc,-0.469
same,glycan array binding signal (z-score),Gal(a1-3)Gal(b1-4)GlcNAc,-0.676
same,glycan array binding signal (z-score),[6],0.009
same,glycan array binding signal (z-score),[7],0.332
same,glycan array binding signal (z-score),[8],1.11
same,glycan array binding signal (z-score),[9],-0.422
same,glycan array binding signal (z-score),[10],-0.625
same,glycan array binding signal (z-score),[11],1.64
same,glycan array binding signal (z-score),Gal(a1-3)GalNAc,0.694
same,glycan array binding signal (z-score),[12],-0.57
same,glycan array binding signal (z-score),[13],-0.288
same,glycan array binding signal (z-score),Gal(a1-4)Gal(b1-4)Glc,1.16
same,glycan array binding signal (z-score),Gal(a1-4)Gal(b1-4)GlcNAc,-0.386
same,glycan array binding signal (z-score),[14],0.445
same,glycan array binding signal (z-score),[15],0.192
same,glycan array binding signal (z-score),Gal(a1-4)GlcNAc,-0.556
same,glycan array binding signal (z-score),Gal(a1-6)Glc,-0.626
same,glycan array binding signal (z-score),Gal(b1-2)Gal,2.16
same,glycan array binding signal (z-score),Gal(b1-3)Gal,-0.503
same,glycan array binding signal (z-score),Gal(b1-3)Gal(b1-4)GlcNAc,-0.49
same,glycan array binding signal (z-score),Gal(b1-3)GalNAc,-0.066
same,glycan array binding signal (z-score),[16],0.46
same,glycan array binding signal (z-score),[17],-0.154
same,glycan array binding signal (z-score),Gal(b1-3)GalNAc(b1-3)Gal,1.55
same,glycan array binding signal (z-score),[18],-0.338
same,glycan array binding signal (z-score),[19],-0.464
same,glycan array binding signal (z-score),[20],-0.163
same,glycan array binding signal (z-score),Gal(b1-3)GlcNAc,-0.488
same,glycan array binding signal (z-score),[21],0.396
same,glycan array binding signal (z-score),[22],0.052
same,glycan array binding signal (z-score),Gal(b1-3)GlcNAc(b1-2)Man,0.491

# Another view of part of the listing above:
binder	measurement	setting	value
B1	glycan array binding signal (z-score)	Gal(b1-3)GalNAc(b1-3)Gal	1.55
same	glycan array binding signal (z-score)	[18]	-0.338
same	glycan array binding signal (z-score)	[19]	-0.464
same	glycan array binding signal (z-score)	[20]	-0.163
same	glycan array binding signal (z-score)	Gal(b1-3)GlcNAc	-0.488
same	glycan array binding signal (z-score)	[21]	0.396
same	glycan array binding signal (z-score)	[22]	0.052
